# Laboratory results reported in article PMC4389229.
# The chains behind the UniProt entries cited, without tags or fusion partners.
# UniProt P24279: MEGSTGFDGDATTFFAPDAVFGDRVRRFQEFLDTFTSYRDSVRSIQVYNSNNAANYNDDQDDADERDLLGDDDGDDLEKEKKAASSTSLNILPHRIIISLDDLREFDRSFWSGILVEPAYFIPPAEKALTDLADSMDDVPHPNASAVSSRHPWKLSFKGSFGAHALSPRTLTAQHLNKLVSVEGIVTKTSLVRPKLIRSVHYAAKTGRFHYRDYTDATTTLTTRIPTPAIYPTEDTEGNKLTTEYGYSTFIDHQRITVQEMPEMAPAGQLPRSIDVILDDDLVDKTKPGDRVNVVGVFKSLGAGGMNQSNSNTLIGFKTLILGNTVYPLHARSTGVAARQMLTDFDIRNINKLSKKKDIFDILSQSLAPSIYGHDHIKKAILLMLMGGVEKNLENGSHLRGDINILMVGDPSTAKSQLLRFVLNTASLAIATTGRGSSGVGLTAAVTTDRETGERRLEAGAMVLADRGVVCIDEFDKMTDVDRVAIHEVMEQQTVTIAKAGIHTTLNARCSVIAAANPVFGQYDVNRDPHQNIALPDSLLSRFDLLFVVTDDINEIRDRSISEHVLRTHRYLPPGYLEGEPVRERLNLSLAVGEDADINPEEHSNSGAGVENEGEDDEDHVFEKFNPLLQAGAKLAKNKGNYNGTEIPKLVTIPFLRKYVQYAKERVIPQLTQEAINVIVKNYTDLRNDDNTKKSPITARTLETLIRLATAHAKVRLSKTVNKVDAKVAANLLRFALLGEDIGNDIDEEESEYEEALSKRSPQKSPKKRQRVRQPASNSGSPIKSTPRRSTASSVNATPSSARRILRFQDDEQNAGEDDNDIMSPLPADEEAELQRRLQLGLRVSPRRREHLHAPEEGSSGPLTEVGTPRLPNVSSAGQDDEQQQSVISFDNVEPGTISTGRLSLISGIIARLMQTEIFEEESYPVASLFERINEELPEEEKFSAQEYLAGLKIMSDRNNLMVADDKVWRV
# Results are given in words; binding and its absence hold for the method and conditions named. In cells and extracts the contact can be indirect. Some binding calls cover weakened binding; strength is not graded here. Tags and fused reporters may be left off the sequences shown.
# T1: Cmr1-VC (S. cerevisiae) (UniProt Q12510)
# T1 sequence: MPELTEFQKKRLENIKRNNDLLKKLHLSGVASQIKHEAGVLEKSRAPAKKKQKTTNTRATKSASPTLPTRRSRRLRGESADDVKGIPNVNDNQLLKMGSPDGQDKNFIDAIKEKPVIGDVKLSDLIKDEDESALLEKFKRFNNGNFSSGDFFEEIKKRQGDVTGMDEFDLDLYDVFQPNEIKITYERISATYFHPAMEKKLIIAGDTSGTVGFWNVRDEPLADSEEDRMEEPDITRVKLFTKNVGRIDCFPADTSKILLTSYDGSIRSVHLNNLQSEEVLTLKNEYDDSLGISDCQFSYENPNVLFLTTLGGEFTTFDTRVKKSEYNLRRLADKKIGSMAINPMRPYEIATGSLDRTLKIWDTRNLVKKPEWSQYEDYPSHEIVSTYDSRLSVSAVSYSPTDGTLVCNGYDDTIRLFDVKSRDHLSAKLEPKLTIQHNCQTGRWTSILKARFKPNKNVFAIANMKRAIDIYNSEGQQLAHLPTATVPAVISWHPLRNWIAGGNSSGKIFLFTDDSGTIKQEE
# Target: T1, Cmr1-VC (S. cerevisiae)
# Assay: split reporter; genome-wide bimolecular fluorescence complementation in living S. cerevisiae: Cmr1-VC query strain crossed to 5,809 VN-fusion strains, Venus fluorescence read by microscopy; Cmr1-VC with Mcm3-VN also imaged before and after 0.05% MMS for 2 h
row,Molecule,binding
1,Mcm3-VN (from UniProt P24279 1-971),binds
2,"Pri1 (VN fusion) (protein, UniProt P10363 1-409) MTNSVKTNGPSSSDMEYYYKSLYPFKHIFNWLNHSPKPSRDMINREFAMAFRSGAYKRYNSFNSVQDFKAQIEKANPDRFEIGAIYNKPPRERDTLLKSELKALEKELVFDIDMDDYDAFRTCCSGAQVCSKCWKFISLAMKITNTALREDFGYKDFIWVFSGRRGAHCWVSDKRARALTDVQRRNVLDYVNVIRDRNTDKRLALKRPYHPHLARSLEQLKPFFVSIMLEEQNPWEDDQHAIQTLLPALYDKQLIDSLKKYWLDNPRRSSKEKWNDIDQIATSLFKGPKQDSHIIKLRECKEDLVLMTLYPKLDVEVTKQTIHLLKAPFCIHPATGNVCVPIDESFAPEKAPKLIDLQTEMEKNNDVSLTALQPFINQFQAYVSSLLKNELGSVKREREDDDEPASLDF",binds
3,"Rfc2 (VN fusion) (protein, UniProt P40348 1-353) MFEGFGPNKKRKISKLAAEQSLAQQPWVEKYRPKNLDEVTAQDHAVTVLKKTLKSANLPHMLFYGPPGTGKTSTILALTKELYGPDLMKSRILELNASDERGISIVREKVKNFARLTVSKPSKHDLENYPCPPYKIIILDEADSMTADAQSALRRTMETYSGVTRFCLICNYVTRIIDPLASRCSKFRFKALDASNAIDRLRFISEQENVKCDDGVLERILDISAGDLRRGITLLQSASKGAQYLGDGKNITSTQVEELAGVVPHDILIEIVEKVKSGDFDEIKKYVNTFMKSGWSAASVVNQLHEYYITNDNFDTNFKNQISWLLFTTDSRLNNGTNEHIQLLNLLVKISQL",binds
4,"Rfc3 (VN fusion) (protein, UniProt P38629 1-340) MSTSTEKRSKENLPWVEKYRPETLDEVYGQNEVITTVRKFVDEGKLPHLLFYGPPGTGKTSTIVALAREIYGKNYSNMVLELNASDDRGIDVVRNQIKDFASTRQIFSKGFKLIILDEADAMTNAAQNALRRVIERYTKNTRFCVLANYAHKLTPALLSRCTRFRFQPLPQEAIERRIANVLVHEKLKLSPNAEKALIELSNGDMRRVLNVLQSCKATLDNPDEDEISDDVIYECCGAPRPSDLKAVLKSILEDDWGTAHYTLNKVRSAKGLALIDLIEGIVKILEDYELQNEETRVHLLTKLADIEYSISKGGNDQIQGSAVIGAIKASFENETVKANV",binds
